Test results from paper PMC8322090.
Results are given in words; binding and its absence hold for the method and conditions named. In cells and extracts the contact can be indirect. Some binding calls cover weakened binding; strength is not graded here.

By UniProt entry, the sequences of proteins in these tests, tags left out.
UniProt P08238: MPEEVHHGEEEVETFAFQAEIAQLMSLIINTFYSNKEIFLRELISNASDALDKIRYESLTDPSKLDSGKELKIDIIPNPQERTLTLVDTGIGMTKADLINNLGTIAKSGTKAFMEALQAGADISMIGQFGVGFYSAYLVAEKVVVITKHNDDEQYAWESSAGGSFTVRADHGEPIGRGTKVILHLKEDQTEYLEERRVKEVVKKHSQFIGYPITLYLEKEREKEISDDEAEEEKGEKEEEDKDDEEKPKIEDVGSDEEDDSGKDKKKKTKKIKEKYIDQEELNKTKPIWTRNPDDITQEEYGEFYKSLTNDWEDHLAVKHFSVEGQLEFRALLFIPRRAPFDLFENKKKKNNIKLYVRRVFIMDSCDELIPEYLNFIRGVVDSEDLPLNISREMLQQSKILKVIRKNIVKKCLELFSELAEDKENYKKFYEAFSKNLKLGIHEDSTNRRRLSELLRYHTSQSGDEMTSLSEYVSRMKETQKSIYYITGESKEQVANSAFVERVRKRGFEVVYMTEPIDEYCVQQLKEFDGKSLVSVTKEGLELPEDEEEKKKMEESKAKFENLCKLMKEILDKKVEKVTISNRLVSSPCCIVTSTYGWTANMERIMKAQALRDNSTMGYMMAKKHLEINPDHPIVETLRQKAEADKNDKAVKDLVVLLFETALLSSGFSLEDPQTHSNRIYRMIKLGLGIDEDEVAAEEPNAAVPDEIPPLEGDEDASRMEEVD

Target: S phase kinase-associated protein 2 (SKP2), ectopically overexpressed (UniProt Q13309)
Assay: co-IP; under ectopic overexpression condition; cells, tags and which protein was precipitated not told

binding	Substance
binds	HSP90β, ectopically overexpressed (from UniProt P08238 1-724)
binds	HSP90α, ectopically overexpressed (from UniProt P07900 1-732)
